In US9394561B2, “Cyclic peptide production” (National Research Council of Canada, priority 2011, dated 2016):
Some results were stated once for a whole list of compounds, not compound by compound.

System: S. vaccaria PCY1
Assay: In vitro assay of recombinant S. vaccaria PCY1 with wild type and mutant presegetalin substrates, products detected by LC/MS
Assay type: biochemical, Saponaria vaccaria
Conditions: alanine scanning mutants of C-terminal region, FIG. 9
Method: The gene corresponding to S. vaccaria PCY1 was cloned and expressed in E. coli with a His-tag. HisPur Cobalt Resin™ (Thermo Scientific) was used for purification of recombinant PCY1. The purified PCY1 was quantified using BCA method (Pierce; http://http://www.piercenet.com/) with BSA as a calibration standard. The in vitro assay contained 20 mM Tris buffer (pH 8.5), 100 mM NaCl, 5 mM DTT, 0.2 mg BSA, and 1.5 μg of substrates (wild type and mutant presegetalins, procured from Bio Basic Inc with >90% purity) and was initiated by the addition of 0.3 μg of PCY1, in a total reaction volume of 100 μl. The assay was incubated at 30° C. for up to 1 h and stopped by placing reactions in dry ice. The assays were lyophilized, re-suspended in methanol, evaporated and re-suspended in 50:50 v/v methanol/water for LC/MS analysis.
Ion trap ESI+ LC/MS/MS analysis was used to detect production of cyclic peptides using an Agilent 6320 Ion Trap LC/MS system under default Smart Parameter settings. […]
In order to characterize substrate specificity of PCY1 and understand the segetalin A biosynthetic mechanism, a total of 44 substrates (Table 3) were tested for the PCY1 activity and the results are briefly summarized in Table 3. The last two columns in Table 3 summarize product type detected by LC/MS after in vitro assays (CP is cyclic peptide and LP is linear peptide, +=presence, −=absence, NA=not applicable). […]

In the case of “13 (GVPVWAAQAKDVENASAPV; Presegetalin A1[14,32] F20A) [compound 13]”, the “segetalin A production, times lower than the WT substrate” value is reported as ≥ 42 times.
For “17 (GVPVWAFQAKAVENASAPV; Presegetalin A1[14,32] D24A) [compound 17]”, the “segetalin A production, times lower than the WT substrate” value was ≥ 42 times.
